Assays:
[1] = general procedure: Fmoc solid-phase peptide synthesis; Fmoc-NH-SAL-PEG resin; COMU/Oxyma/DIPEA; details: whole synthesis
[2] = general procedure: Fmoc solid-phase peptide synthesis; Fmoc-Rink Amide AM resin; COMU/Oxyma/DIPEA; details: whole synthesis

5-Br-thiophene-2-SO2-β-Ala-Asn-Asp-Ala-Leu-(N-Me)Met-Pro-NH2
isolated mass ([1]; scale 0.10 mmol): 27 mg

N^2-[4-(4-phenoxybenzamido)butanoyl]-L-asparaginyl-N-[(2S)-4-amino-1-({(2S)-1-[{(2S,3S)-1-[(2S)-2-(2-amino-2-oxoethyl)pyrrolidin-1-yl]-3-methyl-1-oxopentan-2-yl}(methyl)amino]-4-methyl-1-oxopentan-2-yl}amino)-1-oxobutan-2-yl]-L-α-asparagine
isolated mass ([1]; scale 0.12 mmol): 14 mg

[(2S,5S,8S,20S)-8-[{(2S,3S)-1-[(2S)-2-(2-amino-2-oxoethyl)pyrrolidin-1-yl]-3-methyl-1-oxo pentan-2-yl}(methyl)carbamoyl]-5-methyl-3,6,14,17,21-pentaoxo-20-{4-[(4-phenoxybenzene-1-sulfonyl)amino]butanamido}-1,4,7,13,16-pentaazacyclohenicosan-2-yl]acetic acid
isolated mass ([1]; scale 0.12 mmol): 10 mg

(2S,5S,32R)-2-{[(2S)-1-({(2S)-1-[{(2S,3S)-1-[(2S)-2-(2-amino-2-oxoethyl)pyrrolidin-1-yl]-3-methyl-1-oxopentan-2-yl}(methyl)amino]-4-methyl-1-oxopentan-2-yl}amino)-1-oxopropan-2-yl]carbamoyl}-4,11,20,29,34-pentaoxo-5-{4-[(4-phenoxybenzene-1-sulfonyl)amino]butanamido}-13,16,22,25-tetraoxa-3,10,19,28,33-pentaazaoctatetracontane-1,32,48-tricarboxylic acid
isolated mass ([2]; scale 0.12 mmol): 29 mg

N^2-(4′-acetyl[1,1′-biphenyl]-4-sulfonyl)-N-[(2S)-1-({(2S)-1-[{(2S,3S)-1-[(2S)-2-(2-amino-2-oxoethyl)pyrrolidin-1-yl]-3-methyl-1-oxopentan-2-yl}(methyl)amino]-4-methyl-1-oxopentan-2-yl}amino)-1-oxopropan-2-yl]-D-asparagine
isolated mass ([1]; scale 0.10 mmol): 8 mg

N-[(2S)-3-amino-1-({(2S)-1-[{(2S,3S)-1-[(2S)-2-(2-amino-2-oxoethyl)pyrrolidin-1-yl]-3-methyl-1-oxopentan-2-yl}(methyl)amino]-4-methyl-1-oxopentan-2-yl}amino)-1-oxopropan-2-yl]-N^2-[4-(4-methoxybenzamido)benzene-1-sulfonyl]-D-asparagine
isolated mass ([2]; scale 0.10 mmol): 12 mg

N-[4-(4-carbamoylbenzamido)benzene-1-sulfonyl]-D-γ-glutamyl-(4S)-4-amino-L-prolyl-L-1 eucyl-N-(5-amino-5-oxopentyl)-N^2-methyl-L-α-glutamine
isolated mass ([2]; scale 0.10 mmol): 46 mg

N^2-(4-{4-[4-(methylcarbamoyl)phenoxy]benzamido}butanoyl)-L-asparaginyl-L-α-aspartyl-L-alanyl-L-leucyl-L-methionyl-L-prolinamide
isolated mass ([1]; scale 0.10 mmol): 30 mg
